From PubChem BioAssay record AID504749 (NCATS, 2011).

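Malaria parasite (P. falciparum) lines kept in red blood cells; parasite DNA is measured by SYBR Green fluorescence after lysis, 72 h after compound addition. Each compound was titrated across a series from about 0.000037 to 29 µM. The number is the fitted AC50, the concentration giving a half-maximal change in signal; a lower value means higher potency, whether the curve shows a decrease or an increase. Calls follow the curve class and fit quality: every row here is inconclusive, covering signal-raising curves and weak, poorly fitted, partial or highest-dose-only inhibition curves.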

Values are in µM. Every entry below has the call inconclusive. Only part of the assay is shown, chiefly results filed as inconclusive. Potencies fitted to partial, single-point or poorly fitting curves are rough.

{"compound": "CN1C(=O)CN2CCc3ccccc3C2c2cc(Cl)ccc21", "stereo": "stereo not shown", "tested on / at": "PAD", "potency (µM)": "10", "curve": "inhibitor, single point"}
{"compound": "CN1C(=O)CN2CCc3ccccc3C2c2cc(Cl)ccc21", "stereo": "stereo not shown", "tested on / at": "DIV30", "potency (µM)": "0.0478", "curve": "inhibitor, full curve, poor fit"}
{"compound": "CN1C(=O)CN2CCc3ccccc3C2c2cc(Cl)ccc21", "stereo": "stereo not shown", "tested on / at": "DIV14", "potency (µM)": "15.1", "curve": "inhibitor, partial curve"}
{"compound": "CN1C(=O)CN2CCc3ccccc3C2c2cc(Cl)ccc21", "stereo": "stereo not shown", "tested on / at": "TAB165", "potency (µM)": "17.78", "curve": "inhibitor, single point"}
{"compound": "CN1C(=O)CN2CCc3ccccc3C2c2cc(Cl)ccc21", "stereo": "stereo not shown", "tested on / at": "P93_24", "potency (µM)": "17.78", "curve": "inhibitor, single point"}
{"compound": "CN1C(=O)CN2CCc3ccccc3C2c2cc(Cl)ccc21", "stereo": "stereo not shown", "tested on / at": "TAB109", "potency (µM)": "2.512", "curve": "inhibitor, full curve, poor fit"}
{"compound": "CCCCCCCCCCCCCCCCOCCOCCOCCOCCOCCOCCOCCOCCOCCOCCOCCOCCOCCOCCOCCOCCOCCOCCOCCOCCO", "tested on / at": "CP269", "potency (µM)": "15.1", "curve": "inhibitor, single point"}
{"compound": "CCCCCCCCCCCCCCCCOCCOCCOCCOCCOCCOCCOCCOCCOCCOCCOCCOCCOCCOCCOCCOCCOCCOCCOCCOCCO", "tested on / at": "P94_40", "potency (µM)": "12.59", "curve": "inhibitor, partial curve, poor fit"}
{"compound": "CCCCCCCCCCCCCCCCOCCOCCOCCOCCOCCOCCOCCOCCOCCOCCOCCOCCOCCOCCOCCOCCOCCOCCOCCOCCO", "tested on / at": "CP268", "potency (µM)": "19.01", "curve": "inhibitor, single point"}
{"compound": "CCCCCCCCCCCCCCCCOCCOCCOCCOCCOCCOCCOCCOCCOCCOCCOCCOCCOCCOCCOCCOCCOCCOCCOCCOCCO", "tested on / at": "CP201", "potency (µM)": "19.01", "curve": "inhibitor, single point"}
{"compound": "CCCCCCCCCCCCCCCCOCCOCCOCCOCCOCCOCCOCCOCCOCCOCCOCCOCCOCCOCCOCCOCCOCCOCCOCCOCCO", "tested on / at": "CP297", "potency (µM)": "16.94", "curve": "inhibitor, partial curve, poor fit"}
{"compound": "CCCCCCCCCCCCCCCCOCCOCCOCCOCCOCCOCCOCCOCCOCCOCCOCCOCCOCCOCCOCCOCCOCCOCCOCCOCCO", "tested on / at": "PAD", "potency (µM)": "12.59", "curve": "inhibitor, partial curve, poor fit"}
{"compound": "CCCCCCCCCCCCCCCCOCCOCCOCCOCCOCCOCCOCCOCCOCCOCCOCCOCCOCCOCCOCCOCCOCCOCCOCCOCCO", "tested on / at": "CP286", "potency (µM)": "10", "curve": "inhibitor, single point"}
{"compound": "CCCCCCCCCCCCCCCCOCCOCCOCCOCCOCCOCCOCCOCCOCCOCCOCCOCCOCCOCCOCCOCCOCCOCCOCCOCCO", "tested on / at": "JCK", "potency (µM)": "17.78", "curve": "inhibitor, single point"}
{"compound": "CCCCCCCCCCCCCCCCOCCOCCOCCOCCOCCOCCOCCOCCOCCOCCOCCOCCOCCOCCOCCOCCOCCOCCOCCOCCO", "tested on / at": "CP238", "potency (µM)": "10", "curve": "inhibitor, single point"}
{"compound": "CCCCCCCCCCCCCCCCOCCOCCOCCOCCOCCOCCOCCOCCOCCOCCOCCOCCOCCOCCOCCOCCOCCOCCOCCOCCO", "tested on / at": "CP256", "potency (µM)": "15.85", "curve": "inhibitor, single point"}
{"compound": "CCCCCCCCCCCCCCCCOCCOCCOCCOCCOCCOCCOCCOCCOCCOCCOCCOCCOCCOCCOCCOCCOCCOCCOCCOCCO", "tested on / at": "CP291", "potency (µM)": "16.94", "curve": "inhibitor, single point"}
{"compound": "CCCCCCCCCCCCCCCCOCCOCCOCCOCCOCCOCCOCCOCCOCCOCCOCCOCCOCCOCCOCCOCCOCCOCCOCCOCCO", "tested on / at": "CP247", "potency (µM)": "10", "curve": "inhibitor, single point"}

Once more, the final 2:

compound,tested on / at,potency (µM),curve
CCCCCCCCCCCCCCCCOCCOCCOCCOCCOCCOCCOCCOCCOCCOCCOCCOCCOCCOCCOCCOCCOCCOCCOCCOCCO,CP291,16.94,"inhibitor, single point"
CCCCCCCCCCCCCCCCOCCOCCOCCOCCOCCOCCOCCOCCOCCOCCOCCOCCOCCOCCOCCOCCOCCOCCOCCOCCO,CP247,10,"inhibitor, single point"